Reference: PubChem BioAssay AID1347423 (Functional Genomics Laboratory (NCATS/FGL), 2020)
Out of some 52,000 sequences screened, about 210 (0.4%) were called active.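 The calls were made as follows: active = gene whose silencing raises cell survival under the drug, median off-target-corrected z-score across its silencing RNAs 2 or more; inactive = the rest.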 The list shows a part of the results.

Assay: Resistance to Poly (ADP-Ribose) Polymerase inhibitor: Gene Identification via Genome-wide siRNA Screen
Details: mouse BRCA2 R2336H ES cells, olaparib, CellTiter-Glo viability; active compounds read high
Summary of the method: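 Mouse BRCA2 R2336H ES cells were reverse-transfected with siRNA (20 nM final), treated at 48 h with 500 nM olaparib, and read by CellTiter-Glo after 72 h. Scores: MAD-based z per siRNA, median per gene, seed off-target correction.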
In the case of GGCCUCCUAAAAUCACAGCTT against Zfp292, the z-score was inactive: 0.59.
With CGGGCAGCUAGAUUUCCAATT against S100a11 the z-score was inactive: 0.568.
For GGGCACAUUCUCAAGACGUTT against Stx1b1, the z-score was inactive: -0.33.
For GGUGAAGAUUGACAAGAAATT against D2Wsu81e, the z-score was inactive: 0.49.
For “GCUACAAUCAAAAUUAUGCTT against 4930525K10Rik”, the z-score was inactive: 0.957.
With GGCAAGUUGACCGUGUUUUTT against Dtnb the z-score was inactive: 0.351.
For GGACAGGGAAAAGUCCCAUTT against Siat7f, the z-score was inactive: -0.33.
With CCUGACCAUGCUGUUAUAUTT against Dppa1 the z-score was inactive: -2.09.
For GGAUCAAGUGGUCAAGGUATT against Ilvbl, the z-score was inactive: -0.364.
With GAACUGAAGAAGCAGAUUGTT against G1p2 the z-score was inactive: -0.609.
For GGAAGAACCUUGUUUGUAUTT against Sectm1, the z-score was inactive: -1.21.
For GGUUCUUUCAGAGUUGGCCTT against Mrpl3, the z-score was inactive: 0.764.
In the case of GCUUAUCAGGGUACAGCUUTT against Ipo7, the z-score was inactive: -1.21.
For GGAGCCCUUGCUCUUUAACTT against Folr4, the z-score was inactive: -0.571.
For GCAAAGGAUAUGCAAUUGGTT against Bap1, the z-score was inactive: -0.105.
In the case of GGCUGAAAAACUCAAUUAUTT against Boll, the z-score was inactive: 0.616.
In the case of GGUAAACAUCACUCCUUGGTT against Actrt1, the z-score was inactive: 0.551.
With GGAUGCUGACAAAAAUAUCTT against Iars the z-score was inactive: -2.12.
With GGUGGAAUUGAAGAGUUCATT against Rcor3 the z-score was inactive: 1.82.
In the case of GGUCCGGUCUCAGACUUCATT against Rabl4, the z-score was inactive: -1.09.
With GGUAAUUACUUUCAUAAGGTT against Txnrd1 the z-score was inactive: 0.761.
In the case of “CCUUGGUUUUCCCACUUCATT against 8030411F24Rik”, the z-score was inactive: 0.0406.
In the case of “GCAUUCAGCCAUCGUAAUCTT against 5730409G15Rik”, the z-score was inactive: -1.44.
For “CCGUUGUUUACCUUGUGGCTT against 5033406L14Rik”, the z-score was inactive: -0.576.
For GGUGUCAUCCCUGAAAGAGTT against Tert, the z-score was inactive: -2.33.
In the case of GGUAGACCCUUUUUUUAAGTT against Tgm4, the z-score was inactive: 0.419.
For GGCAUUCUGAAAAAAUAGCTT against Rb1cc1, the z-score was inactive: 0.572.
In the case of “GGGCUGUGAUCAAACAUGGTT against 5430425C04Rik”, the z-score was inactive: -1.32.
In the case of GGACUUUGCCAUUCUUCACTT against Krtap6-1, the z-score was inactive: 0.291.
With GCUUGGUGGAAAUUUCUUGTT against ORF5 the z-score was inactive: -0.11.
For GGAACACUACCGUUUUGGGTT against Ehd2, the z-score was inactive: 0.579.
In the case of GGAGCAAAGGAACAUGAAGTT against Slc12a6, the z-score was inactive: 1.3.
With CCUUCACAAGCAAUAAGUCTT against Bach the z-score was inactive: 0.00503.
In the case of GCAACUUACUGGUAACUCCTT against Slc7a11, the z-score was inactive: -0.227.
For GGCAAUGGUUCAGGAGAAATT against Col25a1, the z-score was inactive: -1.38.
In the case of GGAUUUGUUAAAGAUUCCGTT against Cpd, the z-score was inactive: -0.785.
For UCCAGAAAGAGAAAGCCAUTT against Ifna6T, the z-score was inactive: 0.00573.
In the case of GGUCUUCCGAUGAACAAUCTT against Etfdh, the z-score was inactive: -1.16.
In the case of GCCAGGUUGACAAUGGUUCTT against Ttf2, the z-score was inactive: -0.444.
With GGAUAUCAUCAGUUUGGUUTT against LOC435565 the z-score was inactive: -0.913.
In the case of CCACUGGUGGACAAACUUUTT against BC048546, the z-score was inactive: -0.395.
In the case of “GGCAUUUCUUGUGUUACGUTT against 1110018J18Rik”, the z-score was inactive: -0.0755.
With GCAAACCCACACGAAGCAATT against BC043934 the z-score was inactive: -0.334.
With “GGAGGUGUUGGCUCACAACTT against 8430419L09Rik” the z-score was inactive: 2.14.
In the case of GGUUCACUCUGAAGACACCTT against Pkig, the z-score was inactive: -1.91.
For GGCAAUUGUGUAUCAAUAUTT against Acadl, the z-score was inactive: -0.573.
With GGGCGAAAGCCAAUUUUAGTT against Ddx3y the z-score was inactive: 1.18.
For UGUCCAACAAGCUCUGUACTT against Olfr202, the z-score was inactive: -1.7.
With GGACAUUGUCUACAAGUUGTT against Rnf110 the z-score was inactive: -1.62.
With CCUGUUCACAACUUUCCUATT against Olfr1241 the z-score was inactive: 1.31.
With “GGCUUUGUGGACUUAAUUATT against D630003K02Rik” the z-score was inactive: 2.9.
In the case of GGUUUUACCAGAAAUUCAGTT against Lactb2, the z-score was inactive: 0.321.
In the case of GGACUUUCUAAGGGUAAAATT against Luzp1, the z-score was inactive: 1.18.
In the case of GGGACAGGUUGAGGUCUAUTT against V1rf5, the z-score was inactive: -2.11.
With CGCUGAAGUCUUUUCACAATT against Baiap2 the z-score was inactive: 0.843.
With GCCUUUGCAUGGCAGUCUATT against BC012278 the z-score was inactive: -1.07.
For “GCAGAUAGUUUUGUAACACTT against A830080D01Rik”, the z-score was inactive: -0.987.
In the case of “CCAUAGAGCUAAGUUAUUGTT against 2410014A08Rik”, the z-score was inactive: -0.862.
In the case of GGAUGACUUUGAGUGUGUGTT against AW210570, the z-score was inactive: -0.145.
For CCAAUUGAGGCUGACGUGATT against Dld, the z-score was inactive: -0.918.
For GCUUUACUCCCUAAAUUCATT against Dmrt3, the z-score was inactive: 0.221.
In the case of CCAGCUGUUCGCAAAAAAATT against Zfp265, the z-score was inactive: 0.93.
For “GGCCAACCUAAGUCUCAUATT against B830017H08Rik”, the z-score was inactive: -0.26.
For “GGUGGUAAAGAUUACAUCUTT against 1110005A23Rik”, the z-score was inactive: -0.538.
With GGCGUGUAUGUCAAAAAUATT against Grip1 the z-score was inactive: 0.555.
In the case of GGCUAUUUUGGGACGGCUUTT against Slc16a14, the z-score was inactive: -0.218.
